The values below come from patent US10646596B2, “Near-infrared dye-bound transferrin, and contrast agent for photoacoustic imaging, including the near-infrared dye-bound transferrin” (CANON KABUSHIKI KAISHA, priority 2015, dated 2020).

This data set in a line: Measurement of photoacoustic signal of aqueous sample solution. As to conditions: solution in water, laser wavelength 790 nm, relative to ICG = 1. It is filed as physicochemical.

For the substance “iTF (7.0): Human transferrin covalently bound to ICG-Sulfo-OSu near-infrared dye; number of dye(s) labeled 7.0”, the “PA signal intensity (ICG = 1)” value turned out to be 8.8.

“iTF (8.3): Human transferrin covalently bound to ICG-Sulfo-OSu near-infrared dye; number of dye(s) labeled 8.3”: the “PA signal intensity (ICG = 1)” value came out at 10.4.

On to “iTF (8.4): Human transferrin covalently bound to ICG-Sulfo-OSu near-infrared dye; number of dye(s) labeled 8.4”, for which the “PA signal intensity (ICG = 1)” value is 10.8.

With “iTF (2.0): Human transferrin covalently bound to ICG-Sulfo-OSu near-infrared dye; number of dye(s) labeled 2.0”, the “PA signal intensity (ICG = 1)” value is reported as 1.8.

“iTF (4.8): Human transferrin covalently bound to ICG-Sulfo-OSu near-infrared dye; number of dye(s) labeled 4.8”: the “PA signal intensity (ICG = 1)” value worked out at 5.0.
